Reference: PubChem BioAssay (EPA / NIEHS)
This list was built around the results that the source calls inconclusive (neither active nor inactive); the mix of calls is not that of the screen. Potencies of inconclusive entries are doubtful fits and often do not repeat. Calls of active or inactive are those of the source. How the source made its calls: active means hit-call score of the fitted dose curve at least 0.9, where 1 is the maximum; inconclusive means response in the unintended direction; inactive means score below 0.9.

Test: Tanguay_ZF_120hpf_NC_legacy: (Legacy) Oregon State University Tanguay Lab 120 Hour Post-fertilization zebrafish Assay for Notochord and Tail Malformation (AID 2283656)
Procedure, shortened: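 Binary scoring of notochord distortion by brightfield microscopy; embryos dying were not scored. Wild-type Tropical 5D embryos, chorion removed, exposed singly and statically from 6 to 120 hpf, 28C, sealed, 0.64% DMSO.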

| SMILES | AC50 | outcome |
| --- | --- | --- |
| O=C(O)c1ccccc1 | inconclusive: 41.9 µM |  |
| Oc1ccc(O)cc1 | inconclusive: 20.2 µM |  |
| CC(C)OC(=O)C(C)(C)Oc1ccc(C(=O)c2ccc(Cl)cc2)cc1 | inconclusive: 55 µM |  |
| CCNc1cccc(C)c1 | inconclusive: 11.1 µM |  |
| CS(=O)(=O)OCCCCOS(C)(=O)=O | active: 47.1 µM |  |
| c1ccc2cc3c(ccc4ccccc43)cc2c1 | inconclusive: 71.3 µM |  |
| NC(=O)NN=Cc1ccc([N+](=O)[O-])o1 |  | inactive |
| CC(C)(C)c1cc(/C=C2\SC(N)=NC2=O)cc(C(C)(C)C)c1O | inconclusive: 202 µM |  |
| CC[C@H](NC(=O)c1cc(F)ccc1NS(=O)(=O)c1cccc2cccnc12)c1ccccc1 |  | inactive |
| O=C(O)CC(O)(CC(=O)O)C(=O)O |  | inactive |
| CCCCCCCCOC(=O)c1cc(O)c(O)c(O)c1 |  | inactive |
| Cc1ccc(C(C)(C)C)c(O)c1 | inconclusive: 56.3 µM |  |
| CCCCCCOC(=O)CC(CC(=O)OCCCCCC)(OC(=O)CCC)C(=O)OCCCCCC | inconclusive: 26.8 µM |  |
| CN(C[C@@H](CC[N+]12CCC(C3CCCCC3)(CC1)CC2)c1ccc(Cl)c(Cl)c1)C(=O)c1cc(C(F)(F)F)cc(C(F)(F)F)c1 | inconclusive: 4.01 µM |  |
| c1ccc2c(c1)-c1cccc3c1c-2cc1ccccc13 | inconclusive: 53.2 µM |  |
| O=c1[nH]cnc2c1ncn2[C@H]1CC[C@@H](CO)O1 | inconclusive: 31.1 µM |  |
| OC(CCl)CCl |  | inactive |
| NC1CCCCC1 |  | inactive |
| O=c1[nH]cc(F)c(=O)[nH]1 |  | inactive |

2 compounds drawn at random from those above, as already listed:

| SMILES | AC50 | outcome |
| --- | --- | --- |
| NC(=O)NN=Cc1ccc([N+](=O)[O-])o1 |  | inactive |
| O=C(O)c1ccccc1 | inconclusive: 41.9 µM |  |
